Values from PubChem BioAssay AID493246 (Drosophila RNAi Screening Center, 2011).
Aim: 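Genome-wide search for dsRNAs that reduce cell number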 (primary screen). System: Drosophila Kc and S2R+ cells. Reagents: long dsRNA against Drosophila genes. Read-out: 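Cell number per well after knock-down, printed as raw plate values; calls were based on per-plate z-scores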. Reading the numbers: Kc cell number and S2R+ cell number: higher = more cells remaining. Active means: 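Active when the per-plate z-score of cell number is 3 or more in the direction of fewer cells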.
The screen tested about 21,000 reagents; this is an unselected part of those that have a named target and a result. Of all reagents, 429 (2%) are marked active. 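Values are raw and not normalised between plates; calls rest on per-plate z-scores that were not deposited.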 The numbers tell different reagents against one gene apart. Names joined by + are all predicted targets of the reagent. Not given: the amount of reagent, the time to read-out.

CG2898: Kc cell number, rep 1 = 1.62e6; Kc cell number, rep 2 = 1.59e6; S2R+ cell number, rep 1 = 1.05e6; S2R+ cell number, rep 2 = 1.14e6; activity call = inactive
CG15196: Kc cell number, rep 1 = 1.51e6; Kc cell number, rep 2 = 1.41e6; S2R+ cell number, rep 1 = 1.05e6; S2R+ cell number, rep 2 = 1.05e6; activity call = inactive
me31B: Kc cell number, rep 1 = 9.69e5; Kc cell number, rep 2 = 1.00e6; S2R+ cell number, rep 1 = 9.76e5; S2R+ cell number, rep 2 = 1.08e6; activity call = inactive
LTV1: Kc cell number, rep 1 = 1.23e6; Kc cell number, rep 2 = 1.30e6; S2R+ cell number, rep 1 = 1.16e6; S2R+ cell number, rep 2 = 1.13e6; activity call = inactive
EndoG: Kc cell number, rep 1 = 1.52e6; Kc cell number, rep 2 = 1.62e6; S2R+ cell number, rep 1 = 1.07e6; S2R+ cell number, rep 2 = 1.22e6; activity call = inactive
Best3: Kc cell number, rep 1 = 1.60e6; Kc cell number, rep 2 = 1.85e6; S2R+ cell number, rep 1 = 1.26e6; S2R+ cell number, rep 2 = 1.43e6; activity call = inactive
psh: Kc cell number, rep 1 = 1.63e6; Kc cell number, rep 2 = 1.66e6; S2R+ cell number, rep 1 = 1.22e6; S2R+ cell number, rep 2 = 1.35e6; activity call = inactive
Hcf: Kc cell number, rep 1 = 4.97e5; S2R+ cell number, rep 1 = 7.62e5; activity call = inactive
CG9459: Kc cell number, rep 1 = 1.66e6; Kc cell number, rep 2 = 1.76e6; S2R+ cell number, rep 1 = 1.26e6; S2R+ cell number, rep 2 = 1.32e6; activity call = inactive
Myt1: Kc cell number, rep 1 = 1.33e6; Kc cell number, rep 2 = 1.29e6; S2R+ cell number, rep 1 = 1.20e6; S2R+ cell number, rep 2 = 1.22e6; activity call = inactive
G9a: Kc cell number, rep 1 = 1.45e6; Kc cell number, rep 2 = 1.47e6; S2R+ cell number, rep 1 = 1.11e6; S2R+ cell number, rep 2 = 1.20e6; activity call = inactive
Pxd: Kc cell number, rep 1 = 1.49e6; Kc cell number, rep 2 = 1.58e6; S2R+ cell number, rep 1 = 1.11e6; S2R+ cell number, rep 2 = 1.19e6; activity call = inactive
Prx6c + CG12896 + Prx6b: Kc cell number, rep 1 = 1.50e6; Kc cell number, rep 2 = 1.59e6; S2R+ cell number, rep 1 = 1.21e6; S2R+ cell number, rep 2 = 1.33e6; activity call = inactive
rut: Kc cell number, rep 1 = 9.71e5; Kc cell number, rep 2 = 9.95e5; S2R+ cell number, rep 1 = 6.10e5; S2R+ cell number, rep 2 = 6.50e5; activity call = active
hoip: Kc cell number, rep 1 = 9.49e5; Kc cell number, rep 2 = 9.80e5; S2R+ cell number, rep 1 = 4.58e5; S2R+ cell number, rep 2 = 5.40e5; activity call = active
DAT: Kc cell number, rep 1 = 1.58e6; Kc cell number, rep 2 = 1.63e6; S2R+ cell number, rep 1 = 1.24e6; S2R+ cell number, rep 2 = 1.39e6; activity call = inactive
Sps2: Kc cell number, rep 1 = 1.64e6; Kc cell number, rep 2 = 1.69e6; S2R+ cell number, rep 1 = 1.15e6; S2R+ cell number, rep 2 = 1.29e6; activity call = inactive
CG18539: Kc cell number, rep 1 = 1.52e6; Kc cell number, rep 2 = 1.59e6; S2R+ cell number, rep 1 = 1.11e6; S2R+ cell number, rep 2 = 1.23e6; activity call = inactive
CG34425: Kc cell number, rep 1 = 1.36e6; Kc cell number, rep 2 = 1.49e6; S2R+ cell number, rep 1 = 1.30e6; S2R+ cell number, rep 2 = 1.37e6; activity call = inactive
gem #1: Kc cell number, rep 1 = 1.36e6; Kc cell number, rep 2 = 1.39e6; S2R+ cell number, rep 1 = 1.10e6; S2R+ cell number, rep 2 = 1.15e6; activity call = inactive
gem #2: Kc cell number, rep 1 = 1.44e6; Kc cell number, rep 2 = 1.52e6; S2R+ cell number, rep 1 = 1.21e6; S2R+ cell number, rep 2 = 1.31e6; activity call = inactive

Part of the list above, showing only “Kc cell number, rep 2”:
hoip = 9.80e5
DAT = 1.63e6
